This is one part of the list.

Chains of the proteins cited; added tags and fusions are not shown.
UniProt Q0JBA9, entry or part of it: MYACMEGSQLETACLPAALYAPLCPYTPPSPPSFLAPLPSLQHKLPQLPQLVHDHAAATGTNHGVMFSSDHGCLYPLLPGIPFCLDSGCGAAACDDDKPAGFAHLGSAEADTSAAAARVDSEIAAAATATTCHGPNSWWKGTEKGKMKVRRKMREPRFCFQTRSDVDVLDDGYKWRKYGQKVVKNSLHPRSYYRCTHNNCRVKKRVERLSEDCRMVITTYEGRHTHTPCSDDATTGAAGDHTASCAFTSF

This passage reports binding signal results from PMC7819943, “Rice protein-binding microarrays: a tool to detect cis-acting elements near promoter regions in rice”.

The target of the assay is OsWRKY34 (Oryza sativa, UniProt Q0JBA9 1-250). As to the kind of experiment: protein-binding microarray (RPBM); PBS, 2% BSA, 51.3 ng/ul salmon testes DNA, 50 uM zinc acetate, 200 nM TF, 25 C, 1 h; high values mean tight binding. The settings on record: protein: recombinant; tags: N-terminal polyhistidine and DsRed monomer fusion (pET32a); label: CyDye5-dUTP incorporated in the synthesized complementary strand; 3' TTTTT single-stranded linker to array surface; dsDNA, one strand shown. Summed up: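 Binding signal here means per-feature fluorescence intensity in arbitrary units. The values were read on an Axon 4000B scanner after a custom Agilent array, double-stranded by primer extension with Cy5-dUTP, was incubated with 200 nM protein at 25 °C for 1 h in PBS with 2% BSA, salmon testes DNA and 50 µM zinc acetate, then washed. The proteins were transcription factors with an N-terminal polyhistidine tag and DsRed, expressed in E. coli BL21-CodonPlus and purified on Ni–NTA.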
Consider “TAGCCATCGCCGTCCAGCGCCACTCCTGCTCGACTCCTTGCGGAGTCACCTAGTGCAG”, for which the binding signal is 8500 fluorescence intensity (a.u.).
Next, “ACGCACTGTTCTTTGTCGCTCCACACTCCACTCTCCCTGACGGAGTCACCTAGTGCAG”: 10400 fluorescence intensity (a.u.).
With “ATTTCCCGGTTAGTACAATCATTTACACTTGCCAACTGATCGGAGTCACCTAGTGCAG”, the binding signal was 8900 fluorescence intensity (a.u.).
Next, “GGAGGGGTCGCTGTTCGTTGTGAAGAGGTGAGTGTTTTAGCGGAGTCACCTAGTGCAG”: 9230 fluorescence intensity (a.u.); “GTTTCCATTCCATTTTATCTCGTGTTTGCAGACAACTAACCGGAGTCACCTAGTGCAG”: 8850 fluorescence intensity (a.u.).
The result for “CTCGCTTTCCCGTGCACGGCCAGTGTATATATAGCTCATCCGGAGTCACCTAGTGCAG” reads 8240 fluorescence intensity (a.u.).
On to “ATAGAGTGGTATTATTTCCCTTCTTCTTCTTTTATTCGGCCGGAGTCACCTAGTGCAG”, for which the binding signal was 8070 fluorescence intensity (a.u.).
As for “CAGTTGATACTCATGTTCTGGTTTTCGAATCTAACTTTAACGGAGTCACCTAGTGCAG”, the binding signal is 9970 fluorescence intensity (a.u.).
As for “CGCGCGCGCGTGCGTGCGTGCGTGTGGGTGGGTGGGTGGACGGAGTCACCTAGTGCAG”, the binding signal is 11900 fluorescence intensity (a.u.).
Take “GCCGCACTCCACTTCCCCAACACGCCGCCGCCGCCGCCGCCGGAGTCACCTAGTGCAG”: the binding signal is 11300 fluorescence intensity (a.u.).
Next, “GTGTGTTCGGGTGTGGCTCTAGCTGGAGGACGATGCTAGACGGAGTCACCTAGTGCAG”: 8100 fluorescence intensity (a.u.); “TCTCTTGTCTCCTTGTCTCATTTACTTGTTGTATTTATATCGGAGTCACCTAGTGCAG”: 8230 fluorescence intensity (a.u.); “GTTCTAATGTTTTTCCTTGTCTAATACTTTGTTGGCACTTCGGAGTCACCTAGTGCAG”: 9240 fluorescence intensity (a.u.).
For the sequence “ATTGAGCTCCCAATTTCCCAGTGTCATCTTTATACTTTTTCGGAGTCACCTAGTGCAG”, the binding signal was 11600 fluorescence intensity (a.u.).
“TACATACTACACTATTAATATCTGGTCCCACCTGTCATACCGGAGTCACCTAGTGCAG”: the binding signal was 8960 fluorescence intensity (a.u.).
Take “AGCTCAAAAGCCTTTTTTGTTTGTTCGCTGCTGCCACTGTCGGAGTCACCTAGTGCAG”: the binding signal is 8880 fluorescence intensity (a.u.).
Next, “AAATTTCCAGCCTTTTTTGCGCCCAATTCCATTGGGAGATCGGAGTCACCTAGTGCAG”: 8440 fluorescence intensity (a.u.).
As for “ATTACTTGTCCCATGCAGCTGGACAAAGTACCGTTTGACCCGGAGTCACCTAGTGCAG”, the binding signal was 9060 fluorescence intensity (a.u.).
Next, “ACAACCCTCGTACGCGTCCGCTCAACGCACGCGCTCACACCGGAGTCACCTAGTGCAG”: 9220 fluorescence intensity (a.u.); “GTCCTTTGTTCTCATCATTGTTTGCCAAACCAGTGGACTACGGAGTCACCTAGTGCAG”: 10700 fluorescence intensity (a.u.).
Next, “AAGTTTCGGCTCACCTCACCACTTCACCAACCTATCTGGCCGGAGTCACCTAGTGCAG”: 8500 fluorescence intensity (a.u.).
The result for “GTTTCCTTCCTTGAGCTTGACATGTATTGGTCATTGTTAGCGGAGTCACCTAGTGCAG” reads 8290 fluorescence intensity (a.u.); that for “CCGGCGGTGGCCGGACCTCGCGATCTGCTTTTCTTTTTCTCGGAGTCACCTAGTGCAG”, 9710 fluorescence intensity (a.u.).
In the case of “TCCTGTGTTTTTTCTGTGTTTTGCAATCCTCTGTTTTACACGGAGTCACCTAGTGCAG”, the binding signal was 10900 fluorescence intensity (a.u.).
Next, “CACGTCGCGATTCCGCCTCTGTGCGCGCTGCTGCCCGGGCCGGAGTCACCTAGTGCAG”: 8480 fluorescence intensity (a.u.).
Next, “GCGTATAAAACTGGCATCCGACTTCCTTTTGCCTCCGCTGCGGAGTCACCTAGTGCAG”: 8440 fluorescence intensity (a.u.); “CGCGCGTCGGCCCGTCCATCTCCTGTCCTGTCGGTGCTCTCGGAGTCACCTAGTGCAG”: 12000 fluorescence intensity (a.u.); “AAATCCCCAAATCCTCACGCGGCCACTCGATTTGATCATGCGGAGTCACCTAGTGCAG”: 8270 fluorescence intensity (a.u.).
Next, “CATGCACCCACACATAGCGTATGTATGTAACCACCGAATACGGAGTCACCTAGTGCAG”: 8480 fluorescence intensity (a.u.); “TATCATTCCGCGTCTCGAACTTTCCACCTCTCCCAAATAACGGAGTCACCTAGTGCAG”: 8680 fluorescence intensity (a.u.); “CCCAGCCCAGCCCGTTATTGCCTCTTTTGACCTAGCCCACCGGAGTCACCTAGTGCAG”: 8920 fluorescence intensity (a.u.).
On to “AGTCGGGTAGGGTGTGCGTGTGTGCGTTCATAGGGGTGTGCGGAGTCACCTAGTGCAG”, for which the binding signal is 8740 fluorescence intensity (a.u.).
Consider “TATTCTTCTCTGCTTGCTTGCTGCTATAGATAGATCCTTCCGGAGTCACCTAGTGCAG”, for which the binding signal was 9700 fluorescence intensity (a.u.).
Consider “GTAGTATTTCTCACCTGCTACACGGGCTTACCCAGACACTCGGAGTCACCTAGTGCAG”, for which the binding signal was 9580 fluorescence intensity (a.u.).
Next, “CCGCCCACCTCCTCCCCGACGGCCTCGTCTCCTACCTCGCCGGAGTCACCTAGTGCAG”: 8180 fluorescence intensity (a.u.).
As to “AGACCACCCTAACTCAGCAACCATTCCGCCCACTAGCTTTCGGAGTCACCTAGTGCAG”, the binding signal is 9110 fluorescence intensity (a.u.).
Take “TATAATTTTTGTTTTCTTCTCTCATGTTGCCAGTTCTTGACGGAGTCACCTAGTGCAG”: the binding signal was 9080 fluorescence intensity (a.u.).
The result for “CTTTTCATTTCTGTGTTGATTGCTCTTTTTCTCAGACGTTCGGAGTCACCTAGTGCAG” reads 8720 fluorescence intensity (a.u.).
Regarding “TGCAATTTCACTTGTTTTCGATCGGGTCATATTCTCGTGTCGGAGTCACCTAGTGCAG”, the binding signal was 8290 fluorescence intensity (a.u.).
The result for “CGGCTCCAATTATCTCCATCTCTCTGTCTCCGTATTGACCCGGAGTCACCTAGTGCAG” reads 8480 fluorescence intensity (a.u.); that for “ATCCTCATCTCCGTCTCTTTTACCTTAATCTCGCATATATCGGAGTCACCTAGTGCAG”, 9910 fluorescence intensity (a.u.); that for “ATGCCATTCTCTACAGGAGCACTGCTGTTTTTGCTCCATTCGGAGTCACCTAGTGCAG”, 8850 fluorescence intensity (a.u.).
